# PubChem BioAssay AID1671190 (National Center for Advancing Translational Sciences (NCATS), 2021)
# The chains behind the UniProt entries cited, without tags or fusion partners.
# UniProt P18054, whole entry, looked up: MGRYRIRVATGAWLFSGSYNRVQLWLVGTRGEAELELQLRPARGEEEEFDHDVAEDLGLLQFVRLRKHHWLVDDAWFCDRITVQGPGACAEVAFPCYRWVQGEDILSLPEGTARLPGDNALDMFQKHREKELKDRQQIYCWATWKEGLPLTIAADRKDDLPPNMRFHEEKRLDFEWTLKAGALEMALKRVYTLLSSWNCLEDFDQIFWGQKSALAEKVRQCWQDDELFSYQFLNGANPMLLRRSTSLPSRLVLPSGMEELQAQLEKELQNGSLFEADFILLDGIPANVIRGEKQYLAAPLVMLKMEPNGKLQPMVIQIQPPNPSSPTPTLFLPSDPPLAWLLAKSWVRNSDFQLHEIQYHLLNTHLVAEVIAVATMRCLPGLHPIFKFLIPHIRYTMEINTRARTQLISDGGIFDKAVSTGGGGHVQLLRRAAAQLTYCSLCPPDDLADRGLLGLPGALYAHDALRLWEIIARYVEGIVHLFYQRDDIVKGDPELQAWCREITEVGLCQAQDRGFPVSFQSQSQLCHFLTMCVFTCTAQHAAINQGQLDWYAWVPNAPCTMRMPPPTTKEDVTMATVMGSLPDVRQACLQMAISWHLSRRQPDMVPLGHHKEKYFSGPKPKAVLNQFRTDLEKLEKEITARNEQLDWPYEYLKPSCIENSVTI
# Among all 580,000 compounds or so, about 6,100 (1.1%) were called active. The shares of active, inactive and inconclusive entries below differ from those in the screen. The call rests on the fitted dose curve; in most records, active means well fitted inhibition curve with a large enough effect; inconclusive means small, poorly fitted or top-dose-only effect, or another doubt; inactive means no such curve, though single readings can be large or run the other way. Where the call is inconclusive, the potency comes from a doubtful curve fit.
# Target: Polyunsaturated fatty acid lipoxygenase ALOX12 (Homo sapiens) (UniProt P18054)
# Assay: Primary qHTS assay for inhibitors of human arachidonate 12S-lipoxygenase (ALOX12): Round 2
# Details: purified 12hLO, xylenol orange hydroperoxide absorbance; series mostly up to 108 µM
# In short: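 Purified human 12hLO (150 nM final) in 25 mM Hepes, 0.01% Triton X-100, pH 7.0 was preincubated 15 min at room temperature with compound. Then 40 uM arachidonic acid was added, 30 min. Hydroperoxide was read by Fe-XO absorbance ratio 573/405 nm.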
# Potency means the concentration at half of the fitted maximal effect.
row,SMILES,Potency
1,COc1ccc(-c2noc(-c3cccn3CC(=O)Nc3cccc(C#N)c3)n2)cc1F,"inconclusive: 89.1 µM [inhibitor, single point]"
2,O=C(CSc1nc2ccccc2s1)Nc1cc(S(=O)(=O)N2CCOCC2)ccc1O,active: 22.4 µM
3,O=C(CCn1ccnc1)N1CCC2(CCC(=O)N(CC3CC3)CC2)CC1,inactive
4,CN(C)c1ccc(NC(=O)CCC2CCCC2)cc1,"inconclusive: 126 µM [inhibitor, partial curve, poor fit]"
5,CCOc1ccc(-c2nnc(SCC(=O)Nc3ccc(C)cc3C)o2)cc1,inactive
6,Cc1ccc(OCc2nc(C)c(C(=O)Nc3ccc(C)cc3C)s2)cc1,inactive
7,CC(=O)Nc1cccc(NC(=O)COc2ccc3c(=O)c(-c4ccccc4)c(C)oc3c2)c1,"inconclusive: 158 µM [inhibitor, partial curve, poor fit]"
8,CC(C)CN(CC(C)C)C(=O)Cn1nc(C(=O)O)c2ccccc2c1=O,inactive
9,C#CCCOC(=O)N1C2=NC(C(=O)OC)=C(C(=O)OC)[C@@H]3N(C)c4ccc(OC)cc4[C@]23C[C@H]1C(=O)OC,"inconclusive: 79.4 µM [inhibitor, single point]"
10,ClC(CCN1CCN(Cc2ccccc2)CC1)c1ccccc1 (configuration not stated),"inconclusive: 35.5 µM [inhibitor, single point]"
11,CC(=O)C1=C(NC(=O)c2ccccc2F)C[C@@H]2[C@H]1C2(C)C,"inconclusive: 39.8 µM [inhibitor, single point]"
12,C[C@H](CO)N1C[C@H](C)[C@@H](CN(C)Cc2ccccc2)OCc2cnnn2CCCC1=O,"inconclusive: 31.6 µM [inhibitor, partial curve, poor fit]"
13,CC(=O)c1ccc(NC(=O)N[C@H]2CO[C@H]3[C@@H]2OC[C@@H]3n2nnnc2Oc2ccc(-n3ccnc3)cc2)cc1,inactive
14,CSc1ncccc1C(=O)N(Cc1nnc(-c2ccccc2Cl)o1)C(C)C,"inconclusive: 63.1 µM [inhibitor, partial curve, poor fit]"
15,Cc1c(C(=O)NCc2ccc3c(c2)OCO3)oc2ccc(S(=O)(=O)N3CCCCCC3)cc12,inactive
16,CC(C)C(=O)N1CC(=O)N(C2CCCCC2)CC(OCc2ccccc2)C1 (configuration not stated),inactive
17,CSc1n[nH]c(NC(=O)c2c(-c3c(Cl)cccc3Cl)noc2C)n1,"inconclusive: 100 µM [inhibitor, single point]"
18,COc1ccc(-c2csc(NC(=O)CN3C(=O)C4CC=CCC4C3=O)n2)cc1 (configuration not stated),"inconclusive: 79.4 µM [inhibitor, single point]"
19,O=C(CCSc1ccccc1)Nc1nc2c(s1)COc1ccccc1-2,"inconclusive: 50.1 µM [inhibitor, partial curve, poor fit]"
20,CCN1C(=O)/C(=C\N2CCCCCC2)SC1=S,inactive
21,O=C(Nc1ccncc1)Nc1cccc(Cl)c1Cl,inactive
22,CC(C)Oc1nc(-c2ccccc2Cl)nc2ccccc12,inactive
23,O=C(NCc1ccncc1)C(=O)Nc1ccc2c(c1)OCO2,inactive

row,SMILES,Potency
1,CCCc1nc(SCC(=O)c2ccc(F)cc2)c2ccccc2n1,active: 35.5 µM
2,Cc1cc2oc(=O)cc(CN3CCN(Cc4ccc5c(c4)OCO5)CC3)c2cc1C,"inconclusive: 31.6 µM [inhibitor, partial curve, poor fit]"
3,Cc1ccc(P(=O)(c2ccc(C)cc2)[C@@H](NC(c2ccccc2)c2ccccc2)c2ccccc2)cc1,"inconclusive: 100 µM [inhibitor, single point]"
4,Cc1cc(=O)[nH]c2nnc(SCc3ccccc3F)n12,"inconclusive: 79.4 µM [inhibitor, partial curve, poor fit]"
5,Cc1cc(C)cc(OCC(=O)Nc2nc3ccc([N+](=O)[O-])cc3s2)c1,"inconclusive: 89.1 µM [inhibitor, single point]"
6,Cn1c(=O)cc(SCC(=O)NCc2ccc(F)cc2)c2cc(Cl)ccc21,inactive
7,Cn1c(=O)n(Cc2cccc(Cl)c2)c(=O)c2c1ncn2Cc1ccccc1,"inconclusive: 100 µM [inhibitor, single point]"
8,CC(=NNc1cc(C)c2ccccc2n1)c1ccccn1,"inconclusive: 70.8 µM [inhibitor, partial curve, poor fit]"
9,O=C(O)CCCC(=O)OCCCc1cc2ccccc2c(=O)o1,inactive
10,Cc1ccc(CNC(=O)Nc2c(NC3CCCC3)c3ccccc3oc2=O)cc1,"inconclusive: 89.1 µM [inhibitor, partial curve, poor fit]"
11,N#C/C(=C\c1cccs1)c1nc2ccccc2[nH]1,"inconclusive: 56.2 µM [inhibitor, partial curve, poor fit]"
12,CN1CCC(Oc2ccccc2Sc2ccc(C(F)(F)F)cc2)CC1,"inconclusive: 8.91 µM [inhibitor, partial curve, poor fit]"
13,CC(C)C(=O)/C(C#N)=C\c1cccc(C#N)c1,inactive
14,Cc1cccc(C(=O)N2[C@@H](C(C)C)COc3cc(Br)ccc3S2(=O)=O)c1,inactive
15,Nc1nnc(SCC(=O)N2CCN(Cc3ccccc3)CC2)s1,"inconclusive: 8.91 µM [inhibitor, partial curve, poor fit]"
16,N#Cc1cc2c(n(-c3ccccc3C(F)(F)F)c1=O)CCCC2=O,inactive
17,COc1ccccc1N(CC(=O)Nc1ccc2c(c1)OCCO2)S(C)(=O)=O,inactive
18,Cc1ccc(S(=O)(=O)N2c3cccc4cccc(c34)S2(=O)=O)cc1,"inconclusive: 39.8 µM [inhibitor, partial curve]"
19,Cc1ccsc1/C=N/N1CCN(Cc2ccccc2)CC1,"inconclusive: 25.1 µM [inhibitor, partial curve, poor fit]"
20,Cc1ccc(NC(=O)C2CCN(S(=O)(=O)c3cccc4nonc34)CC2)nc1,inactive
21,CC(C)NS(=O)(=O)c1ccc(NC(=O)Cc2cccs2)cc1,"inconclusive: 2 µM [inhibitor, full curve, poor fit]"
22,Cc1cc(C)n(C(=O)c2cn(C)nc2S(=O)(=O)N2CCN(c3ccc(Cl)cc3)CC2)n1,"inconclusive: 39.8 µM [inhibitor, partial curve, poor fit]"
23,Cc1ccc(NC(=O)Cn2c(=O)c3c(ncn3Cc3ccccc3)n(Cc3ccccc3)c2=O)c(F)c1,inactive

row,SMILES,Potency
1,COc1ccccc1C1CCN(Cc2cccc3ccccc23)CC1,inactive
2,CC(OC(=O)c1ccc2c(c1)NC(=O)CS2)C(=O)c1c[nH]c2ccccc12 (configuration not stated),"inconclusive: 35.5 µM [inhibitor, partial curve]"
3,COc1ccc(C(=O)NCC(c2ccc(Cl)cc2)N2CCCCC2)cc1 (configuration not stated),"inconclusive: 126 µM [inhibitor, single point]"
4,CCOC(=O)c1ccc(NC(=S)N2CCSC2c2c(F)cc(F)cc2F)cc1 (configuration not stated),inactive
5,COc1ccccc1CNCc1cc(OC)c(OC)c(OC)c1,inactive
6,CCOC(=O)Cc1csc(NC(=O)c2ccco2)n1,"inconclusive: 5.01 µM [inhibitor, full curve, poor fit]"
7,CCc1ccc(C(=O)NC(=S)NCc2cccnc2)cc1,"inconclusive: 50.1 µM [inhibitor, partial curve, poor fit]"
8,Cc1cccc(-n2nc(C)c(C(=O)N3CCc4ccccc4C3)c2-n2cccc2)c1,"inconclusive: 1 µM [inhibitor, full curve, poor fit]"
9,Cc1ccn2cc(CNC(=O)c3ccc(Br)o3)nc2c1,"inconclusive: 70.8 µM [inhibitor, partial curve, poor fit]"
10,Cc1cc(C)nc(SCC(=O)NC2=NN=C(c3ccc(Br)cc3)CS2)n1,"inconclusive: 35.5 µM [inhibitor, partial curve, poor fit]"
11,Cn1c(=O)c2c(nc(NCc3ccccc3)n2Cc2ccc(Br)cc2)n(C)c1=O,inactive
12,O=C(c1cnn2ccccc12)N1CCCC(c2nccn2Cc2ccncc2)C1 (configuration not stated),inactive
13,Cc1ccccc1-c1nc(NC(C)C)nc2ccsc12,"inconclusive: 35.5 µM [inhibitor, partial curve, poor fit]"
14,Cc1nn(C)c(C)c1S(=O)(=O)N(CC(=O)Nc1ccc(F)cc1F)c1ccc(C(C)C)cc1,"inconclusive: 89.1 µM [inhibitor, partial curve, poor fit]"
15,C/C(N)=C(/C#N)C(=O)CSc1nn(-c2ccc(Cl)cc2)c(=S)s1,"inconclusive: 44.7 µM [inhibitor, partial curve, poor fit]"
16,CC(C)C(=O)Nc1ccc(-c2nc3cc(C(C)C)ccc3o2)cc1,"inconclusive: 44.7 µM [inhibitor, partial curve, poor fit]"
17,COc1ccc(NC(=O)N(C)C[C@H]2Oc3ccc(NC(=O)CCN4CCOCC4)cc3C(=O)N([C@H](C)CO)C[C@@H]2C)cc1,"inconclusive: 44.7 µM [inhibitor, partial curve, poor fit]"
18,FC(F)(F)c1cccc(C=Nc2cccc3c(N=Cc4cccc(C(F)(F)F)c4)cccc23)c1,"inconclusive: 11.2 µM [inhibitor, full curve, poor fit]"
19,Cc1ccccc1C(=O)Nc1c(C)[nH]c(=O)[nH]c1=O,"inconclusive: 0.355 µM [inhibitor, full curve, poor fit]"
20,O=C1COc2ccc(-c3ccsc3)nc2CN1Cc1ccc(C(F)(F)F)cc1,"inconclusive: 35.5 µM [inhibitor, partial curve, poor fit]"
21,CCN(Cc1ccccc1)C(=O)CCC[C@H]1NC[C@@H]2CC1CN(Cc1ccccc1)C2,"inconclusive: 4.47 µM [inhibitor, full curve]"

# Structures shown so far with two or more sulfur atoms, in the order listed:
row,SMILES,Potency
2,O=C(CSc1nc2ccccc2s1)Nc1cc(S(=O)(=O)N2CCOCC2)ccc1O,active: 22.4 µM
19,O=C(CCSc1ccccc1)Nc1nc2c(s1)COc1ccccc1-2,"inconclusive: 50.1 µM [inhibitor, partial curve, poor fit]"
20,CCN1C(=O)/C(=C\N2CCCCCC2)SC1=S,inactive
15,Nc1nnc(SCC(=O)N2CCN(Cc3ccccc3)CC2)s1,"inconclusive: 8.91 µM [inhibitor, partial curve, poor fit]"
18,Cc1ccc(S(=O)(=O)N2c3cccc4cccc(c34)S2(=O)=O)cc1,"inconclusive: 39.8 µM [inhibitor, partial curve]"
21,CC(C)NS(=O)(=O)c1ccc(NC(=O)Cc2cccs2)cc1,"inconclusive: 2 µM [inhibitor, full curve, poor fit]"
4,CCOC(=O)c1ccc(NC(=S)N2CCSC2c2c(F)cc(F)cc2F)cc1 (configuration not stated),inactive
10,Cc1cc(C)nc(SCC(=O)NC2=NN=C(c3ccc(Br)cc3)CS2)n1,"inconclusive: 35.5 µM [inhibitor, partial curve, poor fit]"
15,C/C(N)=C(/C#N)C(=O)CSc1nn(-c2ccc(Cl)cc2)c(=S)s1,"inconclusive: 44.7 µM [inhibitor, partial curve, poor fit]"

# Given as tab-separated lines: entries from further up.
row	SMILES	Potency
9	Cc1ccn2cc(CNC(=O)c3ccc(Br)o3)nc2c1	inconclusive: 70.8 µM [inhibitor, partial curve, poor fit]
10	Cc1cc(C)nc(SCC(=O)NC2=NN=C(c3ccc(Br)cc3)CS2)n1	inconclusive: 35.5 µM [inhibitor, partial curve, poor fit]
